The nature of this assay: qHTS Assay for Modulators of Lamin A Splicing. The conditions noted are these: HeLa LMNA splicing GFP/RFP minigene ratio, 48 h. In outline:
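S3 HeLa stable clones carrying a lamin A-EGFP splicing minigene plus DsRed2 were seeded at 600 cells/well in Opti-MEM with 2% FBS, pin-dosed and incubated 48 h at 37°C. Acumen cytometry (488 nm) gave the GFP/RFP total-intensity ratio.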

Setting [1] is: measured here: RFP viability control channel.
The mark [2] stands for this setting: measured here: GFP splicing reporter channel.

The list shows a part of the results. The main result of the screen is listed elsewhere. These columns were measured beside it and carry no call. Most of these compounds were active or inconclusive in the main read-out, so they are no random draw. Words in brackets tell the shape of the fitted curve; partial curves, single points and poor fits give uncertain potencies.

For the compound `COC(=O)CNC(c1ccccc1Cl)c1cc(Br)ccc1NS(=O)(=O)c1ccc(C)cc1` (centres undefined), the half-maximal activity concentration (AC50) under setting [1] was 35.5 µM [rising, single point]. On the same count and under the same terms, to `O=C1CCCN1c1ccc(S(=O)(=O)NCCc2ccc(Cl)cc2)cc1` belongs 35.5 µM [rising, single point]. Regarding `COc1cc(-c2nc3cnccn3c2Nc2ccc(C(C)C)cc2)ccc1O`, the AC50 is, setting by setting: under setting [2], 15.8 µM [falling, single point]; under setting [1], 15.8 µM [falling, single point]. As for `COc1ccc([C@H]2[C@H](C(=O)OC(C)(C)C)N3N=Cc4ccccc4C3C23C(=O)c2ccccc2C3=O)c(OC)c1` (some centres undefined), the AC50 under setting [2] is 35.5 µM [rising, single point]. `Cc1nn2c(=O)cc(COC(=O)c3ccc(NC(=O)c4ccc(C(C)(C)C)cc4)cc3)nc2s1`: the half-maximal activity concentration (AC50) reads like this: under setting [2], 14.1 µM [falling, partial curve]; under setting [1], 15.8 µM [falling, partial curve]. For the compound `Cc1ccc(Oc2ccc(Cl)cc2NC(=O)c2ccc(F)cc2F)cc1`, the AC50 runs as follows: under setting [2], 10 µM [rising, partial curve, poor fit]; under setting [1], 14.1 µM [rising, partial curve]. `CCOc1ccc(NS(=O)(=O)c2cc(Cl)ccc2OC)cc1`: the AC50 under setting [1] was 15.8 µM [rising, partial curve]. For the compound `O=[N+]([O-])c1cccc(C2NCC(c3ccccc3Cl)c3c2[nH]c2ccccc32)c1` (centres undefined), the AC50 runs as follows: under setting [2], 14.1 µM [falling, single point]; under setting [1], 11.2 µM [falling, partial curve, poor fit]. As to `CC(C)NC(=O)c1onc(CSc2cccc(F)c2)c1C(=O)O`, under setting [2], the AC50 is 17.8 µM [falling, single point]. For `CCOc1cc(/C=C2\SC(=O)N=C2N)ccc1O`, the concentration at half-maximal activity (AC50) under setting [1] is 11.2 µM [rising, partial curve]. On the same count and under the same terms, to `O=C(N/N=C/c1cn(-c2cccs2)nc1-c1ccccc1)c1ccccc1Cl` belongs 31.6 µM [rising, single point].

Turning to `COc1cc(Br)cc(/C=N/NC(=O)Cc2ccc(C(F)(F)F)cc2[N+](=O)[O-])c1O`, the AC50 under setting [1] was 3.16 µM [rising, single point]. Regarding `COc1ccc(/C=N/Nc2nnc(C)n2N)cc1OC`, the concentration at half-maximal activity (AC50) runs as follows: under setting [2], 35.5 µM [falling, single point]; under setting [1], 35.5 µM [falling, single point]. For `Clc1ccccc1CN(Cc1ccccc1)c1ncnc2nc[nH]c12`, the AC50 under setting [1] is 15.8 µM [rising, partial curve, poor fit].

For the compound `CCOc1ccc(OCC)c(NC(=O)CSc2nc3c(c(=O)n(C)c(=O)n3C)n2C(C)C)c1`, the AC50 is, setting by setting: under setting [2], 22.4 µM [rising, single point]; under setting [1], 17.8 µM [rising, single point].

As to `COc1cc(Cl)c(NC(=O)CN(C)S(=O)(=O)c2ccc3[nH]c4c(c3c2)CCCC4)c(OC)c1`, under setting [2], the concentration at half-maximal activity (AC50) is 0.0355 µM [falling, full curve].

With `O=C(Nc1ccc(Cl)cc1)c1ccc(Br)cc1F`, the AC50 is 0.178 µM [falling, full curve] under setting [2] and 5.01 µM [falling, partial curve, poor fit] under setting [1]. For the compound `CCCOc1ccc(CNC(=O)Cn2c(=O)oc3ccccc32)cc1`, the concentration at half-maximal activity (AC50) under setting [1] is 14.1 µM [rising, partial curve, poor fit]. Still for that read-out and setting: the same measure for `CSC1=NSC2=NC(=O)/C(=C/c3coc4ccccc4c3=O)C(=N)N12`: 35.5 µM [rising, single point]; for `Cc1cc(-n2c(SCc3ccccc3F)nc3n[nH]c(C)c3c2=N)ccc1Cl`: 17.8 µM [falling, partial curve]. In the case of `COc1ccc(-n2cc(C(=O)Nc3ccccc3C#N)c3ccccc3c2=O)cc1`, the half-maximal activity concentration (AC50) under setting [1] was 14.1 µM [rising, partial curve, poor fit]. Take `CCCN1Cc2cccc(C(N)=O)c2C1=O`: the AC50 by setting is: under setting [2], 11.2 µM [rising, single point]; under setting [1], 14.1 µM [rising, single point]. Take `CC(C)(C)c1ccc(S(=O)(=O)N2CCC(c3ccncc3)CC2)cc1`: the AC50 under setting [2] was 0.158 µM [falling, full curve, poor fit]. Turning to `Cc1ccccc1NCC(=O)c1ccc(Br)cc1`, the AC50 under setting [2] is 7.94 µM [falling, partial curve, poor fit] and the half-maximal activity concentration (AC50) under setting [1] was 2 µM [falling, single point]. Take `COc1ccc(CCN2C(=O)CS/C2=N\NC(=O)c2cccs2)cc1OC`: the concentration at half-maximal activity (AC50) under setting [1] was 1.58 µM [falling, full curve, poor fit]. As for `COCCNC(=O)CSc1nccn1Cc1ccc2c(c1)OCO2`, the half-maximal activity concentration (AC50) is, setting by setting: under setting [2], 6.31 µM [rising, single point]; under setting [1], 3.55 µM [rising, single point]. On to `Cc1ccc(NC(=O)c2ccnc(C(C)(C)C)c2)cc1`, for which, under setting [1], the AC50 is 20 µM [rising, single point]. For the compound `O=C(NNc1nc(-c2ccccc2)cs1)c1ccccc1`, under setting [2], the AC50 was 4.47 µM [falling, partial curve]. The same measure, in the same setting: to `CC1(c2ccccc2)NC(=O)N(CC(=O)NC(=O)NCc2ccco2)C1=O` (centres undefined) belongs 0.2 µM [rising, full curve, poor fit]. The same measure, in the same setting: the same measure for `CC(=O)c1cc(CC(=O)N2CCc3c([nH]c4ccccc34)C2c2ccccn2)cs1` (centres undefined): 10 µM [falling, single point]. Turning to `COc1ccccc1NS(=O)(=O)c1cc(NC(=O)Nc2ccccc2)ccc1N1CCCCC1`, the concentration at half-maximal activity (AC50) reads like this: under setting [2], 35.5 µM [rising, single point]; under setting [1], 31.6 µM [rising, single point].

On to `O=C(COc1ccccc1)NNC(=S)NC(=O)c1ccc(Cl)cc1Cl`, for which the half-maximal activity concentration (AC50) under setting [1] is 11.2 µM [rising, partial curve]. For the compound `CCN1CCc2nc(SCC(=O)Nc3ccc(OC)cc3)c(C#N)cc2C1`, the concentration at half-maximal activity (AC50) reads like this: under setting [2], 8.91 µM [rising, partial curve, poor fit]; under setting [1], 12.6 µM [rising, partial curve]. Take `Cc1cc(C)c(-c2csc(NC(=O)C3=NN(c4ccccc4)C(=O)CC3)n2)c(C)c1`: the concentration at half-maximal activity (AC50) is 7.94 µM [rising, partial curve, poor fit] under setting [2] and 8.91 µM [rising, partial curve] under setting [1].

In the case of `Cc1ccc(S(=O)(=O)N2CCC(=O)N(CCOCc3cccc(C)c3)CC2)cc1`, under setting [1], the AC50 is 11.2 µM [rising, single point]. Same read-out and setting: the same measure for `COc1cccc(NC(=O)c2oc3ccc(S(=O)(=O)N4CCOCC4)cc3c2C)c1`: 35.5 µM [rising, single point]; for `CCc1ccccc1N1C(=O)CC(N2CCc3ccccc32)C1=O` (centres undefined): 0.501 µM [falling, full curve, poor fit]. Turning to `OCCC1CN(Cc2cccc3c2OCO3)CCN1C1CCCCC1` (centres undefined), under setting [2], the AC50 was 0.355 µM [rising, full curve]. Consider `Cc1cccc(NC(=O)c2ccc(OC3CSC3)cc2)c1`, for which the concentration at half-maximal activity (AC50) under setting [2] is 14.1 µM [rising, partial curve] and the AC50 under setting [1] is 22.4 µM [rising, single point]. As to `Cc1cc(NC(=O)CSc2ccc3nnc(CCNS(=O)(=O)c4ccccc4)n3n2)no1`, the concentration at half-maximal activity (AC50) under setting [2] was 3.55 µM [rising, partial curve, poor fit]. For the compound `O=C(NCc1cccnc1)c1ccc(CN2CCc3ccccc3C2)cc1`, the half-maximal activity concentration (AC50) under setting [1] was 31.6 µM [rising, single point]. As for `Cc1cccc(CNc2ccnc(-c3ccccc3Cl)n2)c1`, the concentration at half-maximal activity (AC50) under setting [2] is 12.6 µM [falling, partial curve]. Take `CCOc1ccc(N(CC(=O)Nc2ccc(C)c(C)c2)S(=O)(=O)c2c(C)noc2C)cc1`: under setting [1], the concentration at half-maximal activity (AC50) is 15.8 µM [rising, partial curve]. On the same count and under the same terms, to `Cc1cc(C)nc(NC(=NCCc2c[nH]c3ccccc23)NC(=O)Nc2ccccc2)n1` belongs 35.5 µM [rising, single point]. For `CCCS(=O)(=O)c1nc(C)cc(C)c1S(C)(=O)=O`, the AC50 under setting [2] was 0.0501 µM [rising, full curve, poor fit] and the AC50 under setting [1] is 0.0891 µM [rising, full curve]. As to `CCOc1cc(N2CCOCC2)c(OCC)cc1NC(=O)c1ccc2ccccc2n1`, the concentration at half-maximal activity (AC50) under setting [2] is 6.31 µM [falling, single point].

On to `Cc1nc(Nc2ccc(F)cc2)[nH]c(=O)c1CCC(C)C`, for which the AC50 under setting [1] was 35.5 µM [rising, single point]. As for `CCOc1ccc(-c2cccc(NS(=O)(=O)c3ccc(Cl)s3)c2)nn1`, the AC50 under setting [2] is 0.0355 µM [falling, full curve, poor fit].

Regarding `COc1ccc(CNC(=O)c2ccc(Sc3ccc(Cl)cc3)c(NC(C)=O)c2)c(OC)c1`, the half-maximal activity concentration (AC50) runs as follows: under setting [2], 35.5 µM [falling, partial curve, poor fit]; under setting [1], 22.4 µM [falling, partial curve, poor fit]. As for `COc1ccc(CCNC(=O)Cn2cc(C(F)(F)F)cc(Cl)c2=O)cc1OC`, the AC50 under setting [2] was 1 µM [rising, partial curve].

On to `NCCC(O)(P(=O)(O)O)P(=O)(O)O`, for which the concentration at half-maximal activity (AC50) is, setting by setting: under setting [2], 35.5 µM [falling, single point]; under setting [1], 20 µM [falling, single point]. As to `O=C(CCC(=O)Nc1ccccc1Cl)N/N=C/c1c[nH]c2ccccc12`, under setting [1], the AC50 was 8.91 µM [rising, partial curve, poor fit]. Turning to `CS(=O)(=O)N1N=C(c2ccccc2)CC1c1ccc2nccnc2c1` (centres undefined), the AC50 is, setting by setting: under setting [2], 1.58 µM [rising, full curve, poor fit]; under setting [1], 20 µM [rising, partial curve, poor fit]. `Fc1cccc(Cl)c1CSc1nnnn1-c1ccc2c(c1)OCO2`: under setting [1], the half-maximal activity concentration (AC50) was 35.5 µM [rising, single point]. Consider `C(=N\c1ncnc2sccc12)/NOCc1ccccc1`, for which the AC50 under setting [1] is 11.2 µM [rising, partial curve]. Regarding `O=C(CNC(=O)c1ccccc1F)N/N=C/c1cc(Br)ccc1OCc1ccccc1`, the AC50 under setting [1] was 25.1 µM [rising, single point].

For the origin of these results see PubChem BioAssay AID1487 (National Center for Advancing Translational Sciences (NCATS), 2009).
